Reference: the supplement of paper PMC6078165

Test system: MDAMB231
Test: relative JC-1 red fluorescence (viability) vs pre-drug, coculture with fibroblast (fraction); higher = more viable cancer cells
Conditions: 1 µM
Procedure: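 JC-1 labelled TNBC cells cocultured 1:1 (1,500 cells each) with CellTrace Violet stained primary or stromal fibroblasts in 384-well plates in FluoroBrite medium, treated with one of 42 anticancer drugs at 0.1, 1, 10 or 100 uM. JC-1 red fluorescence (mitochondrial integrity in cancer cells only) was read by plate reader every 8 h for 72 h. Values are normalised to each well's pre-drug value. The stock of one drug was tenfold lower, so its dose labels may be too high.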

CCC1=C[C@@H]2CN(C1)Cc1c([nH]c3ccccc13)[C@@](C(=O)OC)(c1cc3c(cc1OC)N(C)[C@H]1[C@@](O)(C(=O)OC)[C@H](OC(C)=O)[C@]4(CC)C=CCN5CC[C@]31[C@@H]54)C2 [Vinorelbine]
relative JC-1 red fluorescence
Conditions	8 h	16 h	24 h	32 h	40 h	48 h	56 h	64 h	72 h
coculture fibroblast: C12385	0.795	0.733	0.718	0.646	0.565	0.544	0.509	0.519	0.508
coculture fibroblast: H6013	0.899	0.803	0.789	0.775	0.723	0.706	0.68	0.662	0.619
coculture fibroblast: H6019	0.82	0.794	0.796	0.778	0.764	0.76	0.744	0.761	0.752
coculture fibroblast: H6076	0.882	0.8014	0.7761	0.75	0.708	0.668	0.646	0.631	0.615
coculture fibroblast: H6231	0.947	0.864	0.7718	0.729	0.665	0.634	0.583	0.565	0.533
coculture fibroblast: HADF	0.877	0.801	0.777	0.7475	0.699	0.667	0.632	0.619	0.572
coculture fibroblast: HCFa	0.911	0.838	0.808	0.752	0.699	0.652	0.604	0.571	0.511
coculture fibroblast: HCPF	0.885	0.78	0.7405	0.7247	0.666	0.624	0.593	0.57	0.545
coculture fibroblast: HHSteC	0.9114	0.897	0.856	0.806	0.766	0.722	0.675	0.647	0.599
coculture fibroblast: HMF	0.904	0.82	0.772	0.733	0.674	0.634	0.584	0.562	0.5325
coculture fibroblast: HPFa	0.956	0.919	0.878	0.8131	0.7846	0.756	0.701	0.676	0.634
coculture fibroblast: HUF	0.889	0.77	0.761	0.642	0.578	0.549	0.502	0.497	0.474
coculture fibroblast: Hs5	0.889	0.8177	0.775	0.734	0.691	0.634	0.595	0.568	0.539
coculture fibroblast: Hs27A	0.9323	0.86184	0.8199	0.7921	0.733	0.672	0.66	0.63	0.583
coculture fibroblast: Hs343T	0.909	0.784	0.753	0.715	0.659	0.62	0.572	0.555	0.535
coculture fibroblast: WS1	0.798	0.726	0.685	0.614	0.559	0.532	0.503	0.511	0.498

Values are relative to the signal before dosing, not to a vehicle control; the signal also falls without drug.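 Labels refer to human fibroblasts, largely primary: uterine (C12385, HUF), lung (H6013), bone (Hs27A), adrenal (HADF), skin (WS1), plus mammary HMF and breast cancer-associated Hs343T. Cancer lines are basal-like or mesenchymal-like triple-negative breast cancer. The paper counts as hits responses shifting over 3x the replicate standard deviation. The tissue of the other fibroblasts is not given here.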
